{"source": "the supplement of paper PMC4604168 (melanoma cell lines)", "note": "The other results are listed elsewhere or left out. Single values are uncertain, as repeats are few or missing.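 Cells were imaged in 1,536-well plates, and nuclei stained with an antibody against cleaved PARP were counted against all DNA-stained nuclei to give the apoptosis fraction. Screening doses were chosen to leave most cells alive, and resting and induced cleaved-PARP levels differ strongly between cell lines.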", "data": [{"tested_on": "IPC-298", "experiment": "cleaved PARP positive nuclei fraction relative to DMSO control; melanoma cells; higher = more apoptosis", "settings": "library dose: low library concentration; 72 h", "units": {"cleaved PARP positive nuclei fraction": "%"}, "values": [{"molecule": "CCCCCCCCc1ccc(CCC(N)(CO)CO)cc1", "note": "[fingolimod] + CC(C)(C)c1cnc(CSc2cnc(NC(=O)C3CCNCC3)s2)o1 [SNS-032] (first compound 2 µM, partner dose 0.01 µM)", "cleaved PARP positive nuclei fraction": 43.2}, {"molecule": "NC(=O)c1ccc(N(C(N)=O)c2c(F)cccc2F)nc1-c1ccc(F)cc1F", "note": "+ COCC[n+]1c2c(n(Cc3cnccn3)c1C)C(=O)c1ccccc1C2=O [YM155] (first compound 0.4 µM, partner dose 0.0004 µM)", "cleaved PARP positive nuclei fraction": 195}, {"molecule": "NC1(c2ccc(-c3nc4ccn5c(=O)[nH]nc5c4cc3-c3ccccc3)cc2)CCC1", "note": "+ CO[C@@H]1[C@H](N(C)C(=O)c2ccccc2)C[C@H]2O[C@]1(C)n1c3ccccc3c3c4c(c5c6ccccc6n2c5c31)C(=O)NC4 [Midostaurin] (first compound 0.4 µM, partner dose 0.08 µM)", "cleaved PARP positive nuclei fraction": 193}, {"molecule": "CC1(C)CCC(c2ccc(Cl)cc2)=C(CN2CCN(c3ccc(C(=O)NS(=O)(=O)c4ccc(N[C@H](CCN5CCOCC5)CSc5ccccc5)c(S(=O)(=O)C(F)(F)F)c4)cc3)CC2)C1", "note": "+ Cn1nnc2c(C(N)=O)ncn2c1=O [temozolomide] (first compound 0.4 µM, partner dose 2 µM)", "cleaved PARP positive nuclei fraction": 596}, {"molecule": "CN(c1ncccc1CNc1nc(Nc2ccc3c(c2)CC(=O)N3)ncc1C(F)(F)F)S(C)(=O)=O", "note": "+ CO[C@@H]1[C@H](N(C)C(=O)c2ccccc2)C[C@H]2O[C@]1(C)n1c3ccccc3c3c4c(c5c6ccccc6n2c5c31)C(=O)NC4 [Midostaurin] (first compound 0.08 µM, partner dose 0.08 µM)", "cleaved PARP positive nuclei fraction": 97.5}, {"molecule": "Cn1sc(=O)n(Cc2ccccc2)c1=O", "note": "+ c1cc(-c2cnn3cc(-c4ccc(OCCN5CCCCC5)cc4)cnc23)ccn1 [Dorsomorphin] (first compound 0.4 µM, partner dose 0.4 µM)", "cleaved PARP positive nuclei fraction": 139}, {"molecule": "CC(=O)O[C@@]12CO[C@@H]1C[C@H](O)[C@@]1(C)C(=O)[C@H](O)C3=C(C)[C@@H](OC(=O)[C@H](O)[C@@H](NC(=O)OC(C)(C)C)c4ccccc4)C[C@@](O)([C@@H](OC(=O)c4ccccc4)[C@H]21)C3(C)C", "note": "[Docetaxel] + N#Cc1c(O)c2c(-c3ccc(-c4ccccc4O)cc3)csc2[nH]c1=O [A769662] (first compound 0.0001 µM, partner dose 2 µM)", "cleaved PARP positive nuclei fraction": 224}, {"molecule": "Cn1cnc2c(F)c(Nc3ccc(Br)cc3Cl)c(C(=O)NOCCO)cc21", "note": "[selumetinib] + OCCn1cc(-c2cnc3nnn(Cc4ccc5ncccc5c4)c3n2)cn1 [PF04217903] (first compound 0.015 µM, partner dose 1 µM)", "cleaved PARP positive nuclei fraction": 111}, {"molecule": "Cn1cnc2c(F)c(Nc3ccc(Br)cc3Cl)c(C(=O)NOCCO)cc21", "note": "[selumetinib] + Oc1cc(-c2nc(-c3ccccc3)[nH]c2-c2ccncc2)ccc1Cl [L779450] (first compound 0.015 µM, partner dose 0.2 µM)", "cleaved PARP positive nuclei fraction": 141}, {"molecule": "Cn1sc(=O)n(Cc2ccccc2)c1=O", "note": "+ CCCCCCCCCCCC1=C(O)C(=O)C=C(O)C1=O [Embelin] (first compound 0.4 µM, partner dose 1.2 µM)", "cleaved PARP positive nuclei fraction": 42.5}, {"molecule": "CCN(CC)CCNC(=O)c1c(C)[nH]c(/C=C2\\C(=O)Nc3ccc(F)cc32)c1C", "note": "[sunitinib] + CCc1ccc(CCOc2ccc(CC3SC(=O)NC3=O)cc2)nc1 [pioglitazone] (first compound 0.4 µM, partner dose 2 µM)", "cleaved PARP positive nuclei fraction": 58.1}]}]}
